According to PubChem BioAssay AID328 (DTP/NCI, 2004):
The list is a part of this screen's results and no random one: it is rich in T/C values a quarter to a half above the control, in often repeated tests (any T/C) and in doses without a T/C. Further doses and runs are listed elsewhere. T/C: endpoint of the treated group in % of that of the vehicle group. Some doses have a count of surviving animals in place of a T/C: the source files T/C as zero there, which appears to mark a toxic dose or a test without result, not a measured value. Some doses without a T/C left all or most animals alive at the check, yet need not have been tolerated: survival well below the control is almost never listed, so the zero probably covers shortened survival too. Survivors were counted at the toxicity check, usually on the fifth day, unless a day is given; later deaths do not show. Schedules are NCI's codes, taken here to give the interval after Q, in days (D) or hours (H), and the number of doses after X. Some doses were run more than once; the values are given in rising order. For survival time, the PubChem record calls one and a half times the control and up active, and a quarter to a half above the control has no call in these data; cut-offs in other NCI protocols can differ. Some T/C values carry the count of animals alive at the toxicity check (mostly the fifth day); where none is given, no animal had died by that day.

System: BDF1 mice, P388 leukemia ip, median survival T/C
Experiment: NCI In Vivo Anticancer Drug Screen. Data for tumor model P388 Leukemia (intraperitoneal) in B6D2F1 (BDF1) mice
Conditions: T/C endpoint: median survival time, higher T/C = longer survival
How it was run: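 Read-out is survival of treated animals expressed relative to the vehicle group, as a T/C ratio.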

[1] = dose: 400.0 mg/kg/injection, schedule: Q04DX003 (ip), vehicle: saline
[2] = dose: 200.0 mg/kg/injection, schedule: Q01DX009 (ip), vehicle: saline with Tween-80
[3] = dose: 400.0 mg/kg/injection, schedule: Q01DX009 (ip), vehicle: saline with Tween-80
[4] = dose: 50.0 mg/kg/injection, schedule: Q01DX009 (ip), vehicle: saline
[5] = dose: 100.0 mg/kg/injection, schedule: Q01DX009 (ip), vehicle: saline
[6] = dose: 200.0 mg/kg/injection, schedule: Q01DX009 (ip), vehicle: saline
[7] = dose: 100.0 mg/kg/injection, schedule: Q01DX009 (ip), vehicle: saline with Tween-80
[8] = dose: 50.0 mg/kg/injection, schedule: Q01DX009 (ip), vehicle: saline with Tween-80
[9] = dose: 400.0 mg/kg/injection, schedule: Q04DX003 (ip), vehicle: saline with Tween-80

## CCOC(=O)CC(C)C(Br)(C(=O)OCC)C(=O)OCC (centres undefined)
dose: 200.0 mg/kg/injection, schedule: Q01DX009 (ip), vehicle: water
  T/C: 130 % of control [5 of 6 alive]
dose: 300.0 mg/kg/injection, schedule: Q01DX009 (ip), vehicle: water
  survivor count: 2 of 6
dose: 400.0 mg/kg/injection, schedule: Q04DX003 (ip), vehicle: water
  survivor count: 2 of 6

## N#CCCNCCC#N
[1]
  survivor count: 6 of 6

## CCc1ccc(C(C)(C)C)cc1
[2]
  T/C: 127 % of control
dose: 300.0 mg/kg/injection, schedule: Q01DX009 (ip), vehicle: saline with Tween-80
  survivor count: 1 of 6

## Cc1c(C#N)c2n(c1C)CCN2
dose: 50.0 mg/kg/injection, schedule: Q01DX009 (ip), vehicle: Klucel (hydroxypropylcellulose) (HPC)
  survivor count: 6 of 6
dose: 100.0 mg/kg/injection, schedule: Q01DX009 (ip), vehicle: Klucel (hydroxypropylcellulose) (HPC)
  survivor count: 6 of 6

## O=C(Nc1ccc(NC(=O)c2ccc(C3=NCCCN3)cc2)cc1)Nc1ccc(C2=NCCCN2)cc1
dose: 20.0 mg/kg/injection, schedule: Q04DX003 (ip), vehicle: saline with Tween-80
  survivor count: 3 of 6

## C[n+]1ccc2ccccc2c1
dose: 200.0 mg/kg/injection, schedule: Q04DX003 (ip), vehicle: saline
  survivor count: 3 of 6

## Cc1cc(C)nc(NS(=O)(=O)c2ccc(NC(=O)C(Cl)(Cl)Cl)cc2)n1
dose: 50.0 mg/kg/injection, schedule: Q01DX005 (ip), vehicle: saline with Tween-80
  survivor count: 5 of 5

## Clc1ccc2nnnn2n1
dose: 32.5 mg/kg/injection, schedule: Q01DX009 (ip), vehicle: saline with Tween-80
  T/C: 132 % of control
dose: 65.0 mg/kg/injection, schedule: Q01DX009 (ip), vehicle: saline with Tween-80
  T/C: 126 and 137 % of control
dose: 130.0 mg/kg/injection, schedule: Q01DX009 (ip), vehicle: saline with Tween-80
  T/C: 127 % of control
dose: 160.0 mg/kg/injection, schedule: Q01DX009 (ip), vehicle: saline with Tween-80
  T/C: 128 % of control

## Cc1cc(O)c2c(c1)C(=O)C=CC2=O
dose: 0.36 mg/kg/injection, schedule: Q01DX009 (ip), vehicle: alcohol
  T/C: 135 % of control
dose: 0.82 mg/kg/injection, schedule: Q01DX009 (ip), vehicle: alcohol
  T/C: 140 % of control
dose: 1.25 mg/kg/injection, schedule: Q01DX009 (ip), vehicle: alcohol
  T/C: 125 % of control
dose: 5.0 mg/kg/injection, schedule: Q01DX009 (ip), vehicle: alcohol
  survivor count: 3 of 6
dose: 10.0 mg/kg/injection, schedule: Q01DX009 (ip), vehicle: alcohol
  survivor count: 0 of 6

## Cc1cc(C)c(N)c(Br)c1C
[3]
  survivor count: 5 of 6

## CC([OH2+])CNCCN.CC([OH2+])CNCCN.O=S(=O)([O-])[O-].[Cu+2] (centres undefined)
[4]
  survivor count: 3 of 6
[5]
  survivor count: 0 of 6
[6]
  survivor count: 0 of 6

## CC1=C(C#N)C(C)(C)C(C#N)=C(C)N1C
dose: 200.0 mg/kg/injection, schedule: Q01DX009 (ip), vehicle: distilled water + Tween-80
  survivor count: 2 of 6

## C=CC(=O)c1c(O)cc(O)c2c1C(C)C(=O)O2 (centres undefined)
dose: 150.0 mg/kg/injection, schedule: Q01DX009 (ip), vehicle: Klucel (hydroxypropylcellulose) (HPC)
  survivor count: 2 of 6
dose: 300.0 mg/kg/injection, schedule: Q01DX009 (ip), vehicle: Klucel (hydroxypropylcellulose) (HPC)
  survivor count: 0 of 6

## CCN(CC)CCN1C(=O)c2cccc3cccc(c23)C1=O
[4]
  survivor count: 6 of 6
[5]
  T/C: 127 [5 of 6 alive], 140, 150, 154 % of control
[6]
  survivor count: 2 of 6 and 3 of 6
[1]
  survivor count: 0 of 6

## COc1ccc(Nc2c3ccccc3nc3ccccc23)cc1
[7]
  survivor count: 5 of 6
[2]
  survivor count: 4 of 6
[3]
  survivor count: 0 of 6

## CCOC(=O)c1cc2nc3ccccn3c(=O)c2cc1N
[8]
  T/C: 125 % of control

## CC(=O)OC1CCC2(C)C(CC(=O)C(C)C23CCC2(C=COC2)O3)C1(C)C (centres undefined)
[8]
  T/C: 143 % of control

## Nc1nc(-c2c[nH]c(=O)[nH]c2=O)cs1
[2]
  survivor count: 3 of 6

## O=C(Nc1ccccc1O)/C(Cl)=C/Cl
dose: 25.0 mg/kg/injection, schedule: Q01DX009 (ip), vehicle: saline with Tween-80
  survivor count: 6 of 6
[8]
  T/C: 132 % of control
  survivor count: 6 of 6
dose: 75.0 mg/kg/injection, schedule: Q01DX009 (ip), vehicle: saline with Tween-80
  T/C: 133 % of control
[7]
  survivor count: 5 of 6

## Clc1c(CI)ccc(CI)c1Cl
dose: 11.0 mg/kg/injection, schedule: Q04DX003 (ip), vehicle: saline sonified
  T/C: 127 % of control
dose: 25.0 mg/kg/injection, schedule: Q01DX009 (ip), vehicle: saline sonified
  T/C: 127 % of control
dose: 25.0 mg/kg/injection, schedule: Q04DX003 (ip), vehicle: Klucel (hydroxypropylcellulose) (HPC)
  T/C: 125 % of control
dose: 25.0 mg/kg/injection, schedule: Q04DX003 (ip), vehicle: saline sonified
  T/C: 138 % of control
dose: 37.5 mg/kg/injection, schedule: Q01DX009 (ip), vehicle: saline with Tween-80
  survivor count: 4 of 6
dose: 37.5 mg/kg/injection, schedule: Q04DX003 (ip), vehicle: saline sonified
  T/C: 144 % of control

## S=c1[nH]c2nc(Cl)c(Cl)nc2[nH]1
[8]
  T/C: 134 % of control
[2]
  survivor count: 4 of 6 and 5 of 6
[9]
  survivor count: 0 of 6

## COc1cc2c(c(OC)c1OC)-c1ccc(OC)c(=O)cc1[C@@H](NC(=O)c1ccccc1)CC2
dose: 0.25 mg/kg/injection, schedule: Q01DX009 (ip), vehicle: saline sonified
  T/C: 137 and 140 % of control
dose: 4.0 mg/kg/injection, schedule: Q01DX009 (ip), vehicle: saline sonified
  survivor count: 3 of 6
dose: 8.0 mg/kg/injection, schedule: Q01DX009 (ip), vehicle: saline sonified
  survivor count: 4 of 6
dose: 9.0 mg/kg/injection, schedule: Q01DX009 (ip), vehicle: saline sonified
  survivor count: 6 of 6
dose: 12.0 mg/kg/injection, schedule: Q01DX009 (ip), vehicle: saline sonified
  survivor count: 6 of 6

## Cc1ccc(-c2nc3ccccc3c(=O)n2/N=C/c2cccc3ccccc23)cc1
[2]
  survivor count: 6 of 6

## C[C@@H]1C[C@H]2CC[C@H](O2)[C@H](C)C(=O)O[C@@H](C)C[C@@H]2CC[C@@H](O2)[C@@H](C)C(=O)O[C@H](C)C[C@H]2CC[C@H](O2)[C@H](C)C(=O)O[C@@H](C)C[C@@H]2CC[C@@H](O2)[C@@H](C)C(=O)O1
[2]
  T/C: 136 % of control
[9]
  survivor count: 6 of 6
